± gives the standard deviation of the averaged measurements. Only a part is listed here, and it is no random draw.
Compound: Nc1ncnc2c1ncn2[C@@H]1O[C@H](COP(=O)(O)OP(=O)(O)OP(=O)(O)O)[C@@H](O)[C@H]1O [adenosine triphosphate]
Assay: NP40-soluble protein abundance relative to vehicle (solubility fold change) (ratio); higher = more soluble protein in presence of ATP
How it was run: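 Crude Jurkat lysate, prepared by Dounce homogenisation, was exposed to eight concentrations from 0.1 to 10 mM for 10 min at room temperature and then 3 min at 37 °C. Solubilisation used 0.8% NP40 with benzonase for 60 min at 4 °C, followed by ultracentrifugation and TMT labelling of the supernatant for LC-MS/MS. After vsn normalisation of intensities, each value is the fold change against the detergent-processed vehicle within each replicate, across three independent experiments.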

By UniProt entry, the sequences of proteins in these tests, tags left out. Where a name states a change or a piece, a line headed by the entry shows the natural chain unless it says otherwise.
UniProt P41208: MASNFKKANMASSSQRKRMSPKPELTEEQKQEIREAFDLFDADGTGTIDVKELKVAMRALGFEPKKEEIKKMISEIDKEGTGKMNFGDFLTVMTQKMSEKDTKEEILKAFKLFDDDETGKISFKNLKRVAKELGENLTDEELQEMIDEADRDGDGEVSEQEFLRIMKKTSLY
UniProt P45973, whole entry: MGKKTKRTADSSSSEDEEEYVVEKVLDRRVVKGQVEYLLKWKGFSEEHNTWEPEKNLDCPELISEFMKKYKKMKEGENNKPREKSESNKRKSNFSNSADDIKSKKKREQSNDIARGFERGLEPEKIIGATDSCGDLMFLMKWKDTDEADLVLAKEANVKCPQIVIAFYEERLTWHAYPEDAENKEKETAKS
UniProt P46734: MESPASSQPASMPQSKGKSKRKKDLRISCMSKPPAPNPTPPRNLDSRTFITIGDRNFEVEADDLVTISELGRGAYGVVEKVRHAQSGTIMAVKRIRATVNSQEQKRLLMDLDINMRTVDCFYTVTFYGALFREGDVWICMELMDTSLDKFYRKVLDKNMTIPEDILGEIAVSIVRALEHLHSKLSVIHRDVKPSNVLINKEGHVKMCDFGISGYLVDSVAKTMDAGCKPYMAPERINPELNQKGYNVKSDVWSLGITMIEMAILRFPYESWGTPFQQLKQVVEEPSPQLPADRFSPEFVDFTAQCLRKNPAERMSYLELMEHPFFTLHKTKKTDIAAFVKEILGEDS
UniProt P36957: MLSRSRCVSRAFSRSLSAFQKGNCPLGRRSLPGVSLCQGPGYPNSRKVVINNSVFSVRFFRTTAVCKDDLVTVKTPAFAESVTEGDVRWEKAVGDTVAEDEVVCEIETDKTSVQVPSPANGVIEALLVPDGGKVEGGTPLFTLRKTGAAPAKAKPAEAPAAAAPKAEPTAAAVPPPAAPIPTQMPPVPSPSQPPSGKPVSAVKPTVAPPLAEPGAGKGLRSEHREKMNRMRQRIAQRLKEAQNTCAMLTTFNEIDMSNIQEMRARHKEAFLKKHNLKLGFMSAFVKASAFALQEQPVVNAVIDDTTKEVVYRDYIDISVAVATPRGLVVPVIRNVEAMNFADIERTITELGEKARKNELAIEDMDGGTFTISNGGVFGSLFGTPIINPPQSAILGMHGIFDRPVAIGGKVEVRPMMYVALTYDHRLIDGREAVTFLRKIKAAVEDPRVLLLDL
UniProt P48454, whole entry: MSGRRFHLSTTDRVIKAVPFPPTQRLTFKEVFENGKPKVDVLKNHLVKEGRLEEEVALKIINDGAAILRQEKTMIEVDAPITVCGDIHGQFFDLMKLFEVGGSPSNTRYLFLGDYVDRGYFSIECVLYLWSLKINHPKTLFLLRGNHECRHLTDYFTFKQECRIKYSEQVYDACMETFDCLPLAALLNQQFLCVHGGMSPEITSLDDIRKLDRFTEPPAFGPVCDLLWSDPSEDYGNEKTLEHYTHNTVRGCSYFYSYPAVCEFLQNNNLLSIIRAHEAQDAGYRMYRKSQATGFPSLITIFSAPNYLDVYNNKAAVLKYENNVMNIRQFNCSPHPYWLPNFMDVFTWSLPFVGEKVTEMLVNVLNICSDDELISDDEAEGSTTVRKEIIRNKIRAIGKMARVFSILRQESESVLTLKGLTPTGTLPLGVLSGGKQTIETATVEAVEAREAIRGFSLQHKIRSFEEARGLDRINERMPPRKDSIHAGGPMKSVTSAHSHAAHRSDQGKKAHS
UniProt P51948: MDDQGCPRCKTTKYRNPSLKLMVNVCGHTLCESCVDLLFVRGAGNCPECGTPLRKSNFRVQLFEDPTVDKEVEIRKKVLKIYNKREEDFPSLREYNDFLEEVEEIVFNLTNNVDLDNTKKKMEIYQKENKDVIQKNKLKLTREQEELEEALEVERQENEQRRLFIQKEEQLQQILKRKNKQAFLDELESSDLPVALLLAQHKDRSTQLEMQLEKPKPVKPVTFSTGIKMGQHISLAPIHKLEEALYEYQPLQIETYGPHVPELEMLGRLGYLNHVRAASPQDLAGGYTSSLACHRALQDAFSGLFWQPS
UniProt P52788: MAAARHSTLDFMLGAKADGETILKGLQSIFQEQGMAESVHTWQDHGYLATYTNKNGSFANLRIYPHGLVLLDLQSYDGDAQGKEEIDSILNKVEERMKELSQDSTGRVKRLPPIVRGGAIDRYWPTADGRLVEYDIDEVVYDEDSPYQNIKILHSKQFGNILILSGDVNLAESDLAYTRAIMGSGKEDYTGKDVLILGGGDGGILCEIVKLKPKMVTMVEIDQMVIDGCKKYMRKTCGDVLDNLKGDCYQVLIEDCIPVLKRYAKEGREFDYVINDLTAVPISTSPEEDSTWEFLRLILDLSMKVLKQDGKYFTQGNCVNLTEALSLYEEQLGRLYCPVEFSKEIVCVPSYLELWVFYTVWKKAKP
UniProt P50552: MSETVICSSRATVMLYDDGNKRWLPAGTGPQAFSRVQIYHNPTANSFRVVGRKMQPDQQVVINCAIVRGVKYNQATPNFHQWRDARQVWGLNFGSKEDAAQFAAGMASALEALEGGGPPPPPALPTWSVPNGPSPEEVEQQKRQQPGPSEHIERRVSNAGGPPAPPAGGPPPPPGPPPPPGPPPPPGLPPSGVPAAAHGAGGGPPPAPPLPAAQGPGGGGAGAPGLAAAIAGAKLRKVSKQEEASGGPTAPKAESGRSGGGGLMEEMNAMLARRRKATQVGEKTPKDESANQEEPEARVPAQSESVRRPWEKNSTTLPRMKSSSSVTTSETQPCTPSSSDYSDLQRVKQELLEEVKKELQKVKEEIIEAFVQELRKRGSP
UniProt P42336, whole entry: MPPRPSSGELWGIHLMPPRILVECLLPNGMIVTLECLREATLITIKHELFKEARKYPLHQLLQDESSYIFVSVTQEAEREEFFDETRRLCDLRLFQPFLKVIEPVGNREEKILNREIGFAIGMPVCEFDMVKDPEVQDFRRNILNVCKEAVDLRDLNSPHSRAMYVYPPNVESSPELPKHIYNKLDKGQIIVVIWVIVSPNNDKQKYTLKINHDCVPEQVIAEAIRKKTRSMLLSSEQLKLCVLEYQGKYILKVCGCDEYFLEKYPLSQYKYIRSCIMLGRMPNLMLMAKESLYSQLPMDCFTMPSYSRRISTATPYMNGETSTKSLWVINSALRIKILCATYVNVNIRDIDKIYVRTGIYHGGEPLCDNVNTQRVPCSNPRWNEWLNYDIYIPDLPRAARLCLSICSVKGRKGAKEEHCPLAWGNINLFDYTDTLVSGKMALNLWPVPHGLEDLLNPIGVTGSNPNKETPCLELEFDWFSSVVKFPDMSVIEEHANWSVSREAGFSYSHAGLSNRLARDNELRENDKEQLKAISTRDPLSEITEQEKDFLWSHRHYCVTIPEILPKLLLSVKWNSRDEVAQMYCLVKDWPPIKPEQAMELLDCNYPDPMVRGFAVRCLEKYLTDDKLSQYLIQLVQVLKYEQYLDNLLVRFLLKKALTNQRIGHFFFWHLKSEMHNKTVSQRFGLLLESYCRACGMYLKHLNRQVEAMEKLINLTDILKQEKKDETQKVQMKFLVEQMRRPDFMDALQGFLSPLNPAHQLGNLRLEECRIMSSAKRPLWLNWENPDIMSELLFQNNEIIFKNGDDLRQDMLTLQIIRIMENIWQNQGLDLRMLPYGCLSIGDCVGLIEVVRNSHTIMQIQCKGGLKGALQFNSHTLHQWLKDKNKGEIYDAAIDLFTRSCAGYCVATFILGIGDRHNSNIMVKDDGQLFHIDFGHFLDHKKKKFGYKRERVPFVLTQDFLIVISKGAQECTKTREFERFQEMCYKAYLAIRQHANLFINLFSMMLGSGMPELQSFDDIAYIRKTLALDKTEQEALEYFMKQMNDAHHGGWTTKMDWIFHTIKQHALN
UniProt P46199: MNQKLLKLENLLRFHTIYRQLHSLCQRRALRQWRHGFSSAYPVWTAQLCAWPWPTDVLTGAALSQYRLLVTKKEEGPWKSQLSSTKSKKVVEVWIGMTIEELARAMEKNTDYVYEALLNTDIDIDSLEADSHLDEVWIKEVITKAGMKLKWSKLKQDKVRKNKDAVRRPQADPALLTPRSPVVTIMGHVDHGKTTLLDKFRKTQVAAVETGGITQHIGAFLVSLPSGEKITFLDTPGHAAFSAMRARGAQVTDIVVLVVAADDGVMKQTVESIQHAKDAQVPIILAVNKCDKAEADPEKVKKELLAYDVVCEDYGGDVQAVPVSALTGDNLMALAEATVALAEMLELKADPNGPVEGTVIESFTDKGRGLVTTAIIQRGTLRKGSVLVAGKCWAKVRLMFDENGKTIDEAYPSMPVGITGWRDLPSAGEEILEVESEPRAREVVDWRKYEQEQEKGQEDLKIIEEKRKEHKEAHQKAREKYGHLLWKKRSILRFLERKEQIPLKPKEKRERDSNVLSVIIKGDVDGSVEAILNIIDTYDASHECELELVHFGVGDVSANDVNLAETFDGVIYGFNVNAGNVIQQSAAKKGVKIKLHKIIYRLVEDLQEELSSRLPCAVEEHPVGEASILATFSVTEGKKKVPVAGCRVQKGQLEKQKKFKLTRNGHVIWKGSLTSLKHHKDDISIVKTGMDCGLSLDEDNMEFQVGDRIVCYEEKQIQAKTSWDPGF
UniProt P46459: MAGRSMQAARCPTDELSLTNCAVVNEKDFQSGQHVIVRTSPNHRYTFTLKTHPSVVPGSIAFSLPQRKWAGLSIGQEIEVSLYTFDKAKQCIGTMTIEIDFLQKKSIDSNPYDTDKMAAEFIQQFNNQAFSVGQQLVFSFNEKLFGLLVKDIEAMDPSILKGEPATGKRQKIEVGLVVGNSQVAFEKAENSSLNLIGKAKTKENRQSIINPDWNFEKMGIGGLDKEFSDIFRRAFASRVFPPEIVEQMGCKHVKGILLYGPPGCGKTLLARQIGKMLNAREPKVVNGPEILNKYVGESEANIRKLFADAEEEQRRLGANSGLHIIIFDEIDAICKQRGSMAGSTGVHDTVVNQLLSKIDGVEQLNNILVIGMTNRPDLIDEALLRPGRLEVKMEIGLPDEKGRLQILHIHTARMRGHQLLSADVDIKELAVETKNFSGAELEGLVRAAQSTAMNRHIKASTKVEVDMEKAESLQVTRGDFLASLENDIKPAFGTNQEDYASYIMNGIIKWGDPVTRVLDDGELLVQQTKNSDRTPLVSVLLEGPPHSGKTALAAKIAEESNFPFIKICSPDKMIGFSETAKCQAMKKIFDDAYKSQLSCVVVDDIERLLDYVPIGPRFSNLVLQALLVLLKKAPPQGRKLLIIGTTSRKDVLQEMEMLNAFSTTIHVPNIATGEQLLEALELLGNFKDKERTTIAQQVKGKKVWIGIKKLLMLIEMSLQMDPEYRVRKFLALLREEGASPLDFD
UniProt P50749: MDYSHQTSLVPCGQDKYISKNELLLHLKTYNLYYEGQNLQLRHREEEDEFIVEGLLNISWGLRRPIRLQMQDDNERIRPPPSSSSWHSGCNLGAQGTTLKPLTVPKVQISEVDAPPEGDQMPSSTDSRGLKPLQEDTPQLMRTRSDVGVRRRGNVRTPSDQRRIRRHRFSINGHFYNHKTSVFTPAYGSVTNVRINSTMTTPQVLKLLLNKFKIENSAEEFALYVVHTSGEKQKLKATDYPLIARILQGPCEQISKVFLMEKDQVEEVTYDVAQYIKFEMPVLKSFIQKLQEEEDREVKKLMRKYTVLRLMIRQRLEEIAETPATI
UniProt P51946: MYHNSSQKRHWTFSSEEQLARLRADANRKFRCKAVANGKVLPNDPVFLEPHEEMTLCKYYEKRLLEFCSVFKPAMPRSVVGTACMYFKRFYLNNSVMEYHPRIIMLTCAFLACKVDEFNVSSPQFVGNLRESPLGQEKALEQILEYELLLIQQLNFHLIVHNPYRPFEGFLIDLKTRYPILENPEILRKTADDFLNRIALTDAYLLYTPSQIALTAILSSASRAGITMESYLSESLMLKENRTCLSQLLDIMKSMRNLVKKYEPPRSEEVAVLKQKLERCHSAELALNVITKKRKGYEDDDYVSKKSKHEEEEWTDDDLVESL
UniProt P41743, whole entry: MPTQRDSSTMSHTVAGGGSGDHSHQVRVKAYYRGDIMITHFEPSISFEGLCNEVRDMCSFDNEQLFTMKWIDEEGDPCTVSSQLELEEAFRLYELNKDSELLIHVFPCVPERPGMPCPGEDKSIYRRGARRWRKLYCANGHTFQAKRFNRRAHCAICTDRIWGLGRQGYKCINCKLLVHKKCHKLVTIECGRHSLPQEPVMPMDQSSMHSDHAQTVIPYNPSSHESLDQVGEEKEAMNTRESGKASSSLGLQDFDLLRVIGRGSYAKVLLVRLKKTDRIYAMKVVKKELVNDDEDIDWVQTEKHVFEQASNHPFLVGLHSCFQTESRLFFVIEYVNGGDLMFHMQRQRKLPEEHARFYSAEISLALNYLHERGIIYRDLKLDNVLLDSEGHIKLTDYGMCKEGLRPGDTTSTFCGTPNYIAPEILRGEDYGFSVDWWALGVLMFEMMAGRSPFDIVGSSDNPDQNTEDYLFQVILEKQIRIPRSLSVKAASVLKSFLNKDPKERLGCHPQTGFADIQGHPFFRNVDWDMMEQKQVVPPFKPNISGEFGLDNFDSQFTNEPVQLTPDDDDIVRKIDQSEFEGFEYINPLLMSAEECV

Target	NP40-soluble protein abundance (concentration: 1mM)	NP40-soluble protein abundance (concentration: 2mM)	NP40-soluble protein abundance (concentration: 4mM)	NP40-soluble protein abundance (concentration: 6mM)	NP40-soluble protein abundance (concentration: 8mM)	NP40-soluble protein abundance (concentration: 10mM)
UniProt P51157 and related entries	1.01 ± 0.037	1.01 ± 0.037	1.007 ± 0.0076	0.975 ± 0.075	0.958 ± 0.028	0.975 ± 0.032
USP8 (UniProt P40818)	1 ± 0.023	1.01 ± 0.025	0.997 ± 0.021	1 ± 0.034	0.976 ± 0.018	0.972 ± 0.032
ZAP70 (UniProt P43403)	1.03 ± 0.091	1.02 ± 0.097	0.979 ± 0.074	0.966 ± 0.15	1.01 ± 0.076	0.989 ± 0.073
UniProt P49407-2|P49407	0.9921 ± 0.009	1.04 ± 0.022	1.01 ± 0.037	1 ± 0.037	0.969 ± 0.029	1.02 ± 0.026
HINT1 (UniProt P49773)	0.97 ± 0.081	0.954 ± 0.012	0.917 ± 0.017	0.962 ± 0.0099	0.925 ± 0.013	0.875 ± 0.036
KNTC1 (UniProt P50748)	1.07 ± 0.11	1.01 ± 0.082	1.01 ± 0.072	0.932 ± 0.054	1 ± 0.026	0.969 ± 0.051
NDUFA8 (UniProt P51970)	0.987 ± 0.067	0.941 ± 0.04	0.938 ± 0.041	0.941 ± 0.069	0.992 ± 0.04	0.918 ± 0.064
SLC1A4 (UniProt P43007)	0.977 ± 0.068	1.01 ± 0.033	0.976 ± 0.057	0.975 ± 0.025	0.98 ± 0.051	0.921 ± 0.079
PSMD7 (UniProt P51665)	0.973 ± 0.059	0.914 ± 0.036	0.875 ± 0.033	0.913 ± 0.05	0.918 ± 0.038	0.897 ± 0.03
NCAPD3 (UniProt P42695)	1.11 ± 0.041	1.08 ± 0.026	1.12 ± 0.014	1.11 ± 0.07	1.122 ± 0.0053	1.14 ± 0.048
RAB27A (UniProt P51159)	0.997 ± 0.066	0.993 ± 0.025	0.981 ± 0.048	0.962 ± 0.1	0.98 ± 0.048	0.99 ± 0.066
UniProt P45985	1 ± 0.024	1.02 ± 0.016	0.983 ± 0.037	0.997 ± 0.037	0.958 ± 0.035	0.992 ± 0.046
HLCS (UniProt P50747)	0.971 ± 0.022	0.954 ± 0.02	0.994 ± 0.038	0.944 ± 0.033	0.937 ± 0.026	0.884 ± 0.11
UniProt P50570-4|P50570	1.02 ± 0.045	1.03 ± 0.056	1.01 ± 0.048	0.993 ± 0.11	1 ± 0.06	1.01 ± 0.034
CETN2 (UniProt P41208)	0.833 ± 0.2	0.864 ± 0.16	0.853 ± 0.14	0.857 ± 0.19	0.816 ± 0.1	0.767 ± 0.17
UniProt P40429 and related entries	0.952 ± 0.022	0.887 ± 0.12	0.789 ± 0.14	0.692 ± 0.11	0.533 ± 0.11	0.823 ± 0.12
RFX3 (UniProt P48380)	1.04 ± 0.057	0.988 ± 0.052	1 ± 0.021	1.02 ± 0.011	1.03 ± 0.078	1.01 ± 0.048
GALK1 (UniProt P51570)	0.952 ± 0.052	0.973 ± 0.042	0.948 ± 0.025	0.927 ± 0.08	0.94 ± 0.03	0.963 ± 0.051
CBX5 (UniProt P45973)	1.12 ± 0.067	1.16 ± 0.041	1.189 ± 0.0073	1.29 ± 0.027	1.27 ± 0.041	1.27 ± 0.049
UniProt P43487 and related entries	0.957 ± 0.13	0.93 ± 0.044	0.932 ± 0.038	1.01 ± 0.08	0.937 ± 0.037	0.858 ± 0.062
GTF2A2 (UniProt P52657)	0.865 ± 0.098	0.889 ± 0.11	0.849 ± 0.077	0.886 ± 0.11	0.829 ± 0.087	0.789 ± 0.16
UniProt P46734	1.1 ± 0.034	1.11 ± 0.02	1.04 ± 0.048	1.04 ± 0.074	1.08 ± 0.032	1.04 ± 0.028
RPIA (UniProt P49247)	0.962 ± 0.037	0.97 ± 0.039	0.928 ± 0.053	0.927 ± 0.092	0.941 ± 0.031	0.946 ± 0.022
DLST (UniProt P36957)	1.07 ± 0.11	0.986 ± 0.12	0.97 ± 0.15	1.06 ± 0.29	1.02 ± 0.22	1.04 ± 0.19
LIG4 (UniProt P49917)	1.19 ± 0.079	1.22 ± 0.1	1.26 ± 0.098	1.21 ± 0.13	1.3 ± 0.14	1.32 ± 0.16

Target	NP40-soluble protein abundance (concentration: 1mM)	NP40-soluble protein abundance (concentration: 2mM)	NP40-soluble protein abundance (concentration: 4mM)	NP40-soluble protein abundance (concentration: 6mM)	NP40-soluble protein abundance (concentration: 8mM)	NP40-soluble protein abundance (concentration: 10mM)
UniProt P49589 and related entries	1.012 ± 0.0024	0.975 ± 0.023	0.947 ± 0.025	0.977 ± 0.024	0.962 ± 0.032	0.944 ± 0.025
UniProt P48454 and related entries	1.04 ± 0.062	0.995 ± 0.033	0.959 ± 0.033	0.97 ± 0.05	1 ± 0.048	1 ± 0.044
PSMB2 (UniProt P49721)	0.944 ± 0.065	0.901 ± 0.014	0.8244 ± 0.0069	0.863 ± 0.026	0.889 ± 0.045	0.848 ± 0.038
UniProt P49768 and related entries	0.751 ± 0.082	0.784 ± 0.015	0.733 ± 0.041	0.737 ± 0.066	0.741 ± 0.038	0.834 ± 0.013
UniProt P50219 and related entries	0.812 ± 0.29	0.8753 ± 0.0032	0.867 ± 0.029	0.844 ± 0.019	0.8297 ± 0.0026	0.897 ± 0.085
UniProt P48047	0.95 ± 0.064	0.907 ± 0.045	0.872 ± 0.064	0.866 ± 0.084	0.881 ± 0.092	0.818 ± 0.046
UniProt P46934-4	1.03 ± 0.064	1.05 ± 0.029	1.05 ± 0.046	0.997 ± 0.087	1.04 ± 0.051	1.03 ± 0.031
ACADSB (UniProt P45954)	1.03 ± 0.06	1.02 ± 0.035	1.02 ± 0.045	0.983 ± 0.043	1.03 ± 0.064	1.02 ± 0.058
TALDO1 (UniProt P37837)	0.937 ± 0.028	0.914 ± 0.018	0.883 ± 0.012	0.94 ± 0.023	0.893 ± 0.03	0.866 ± 0.05
RPL34 (UniProt P49207)	0.911 ± 0.13	0.837 ± 0.12	0.788 ± 0.12	0.738 ± 0.1	0.554 ± 0.11	0.775 ± 0.061
ARHGDIB (UniProt P52566)	0.993 ± 0.025	0.981 ± 0.026	0.936 ± 0.019	0.958 ± 0.062	0.928 ± 0.03	0.953 ± 0.059
MNAT1 (UniProt P51948)	1 ± 0.053	0.994 ± 0.017	0.991 ± 0.03	1.06 ± 0.058	1.004 ± 0.0089	0.987 ± 0.016
SMS (UniProt P52788)	0.9815 ± 0.0077	0.97 ± 0.031	0.955 ± 0.023	1 ± 0.059	0.968 ± 0.042	0.93 ± 0.041
VASP (UniProt P50552)	0.952 ± 0.075	0.952 ± 0.041	0.942 ± 0.064	0.976 ± 0.038	0.915 ± 0.048	0.917 ± 0.035
PIK3CA (UniProt P42336)	1.07 ± 0.13	1.01 ± 0.13	1.01 ± 0.091	0.951 ± 0.14	1.04 ± 0.081	0.983 ± 0.071
GNAQ (UniProt P50148)	0.997 ± 0.074	0.997 ± 0.064	0.984 ± 0.047	0.948 ± 0.11	1.01 ± 0.053	0.969 ± 0.048
UniProt P49796 and related entries	0.956 ± 0.057	0.973 ± 0.041	0.972 ± 0.026	0.942 ± 0.053	0.902 ± 0.021	0.935 ± 0.042
UniProt P52758	0.912 ± 0.053	0.955 ± 0.029	0.929 ± 0.03	0.904 ± 0.072	0.896 ± 0.028	0.877 ± 0.076
MTIF2 (UniProt P46199)	1.04 ± 0.039	1.04 ± 0.038	0.986 ± 0.046	0.9388 ± 0.0065	0.968 ± 0.073	0.976 ± 0.035
NSF (UniProt P46459)	1.03 ± 0.03	0.999 ± 0.02	0.9712 ± 0.0089	0.987 ± 0.035	0.99 ± 0.042	0.976 ± 0.047
RASSF2 (UniProt P50749)	0.993 ± 0.066	1.04 ± 0.069	1.03 ± 0.037	0.975 ± 0.088	1.04 ± 0.045	1.01 ± 0.034
CCNH (UniProt P51946)	0.99 ± 0.073	1.04 ± 0.096	1.01 ± 0.14	0.987 ± 0.098	1.03 ± 0.034	1.01 ± 0.12
UniProt P41743	1.02 ± 0.064	1.04 ± 0.065	0.999 ± 0.067	0.952 ± 0.06	1.01 ± 0.088	1.01 ± 0.13
UniProt P41250	0.976 ± 0.04	0.962 ± 0.044	0.923 ± 0.043	0.948 ± 0.078	0.948 ± 0.044	0.935 ± 0.05
UniProt P36873 and related entries	0.942 ± 0.098	0.935 ± 0.034	0.958 ± 0.1	0.925 ± 0.093	0.994 ± 0.092	0.948 ± 0.03

Some values from above:
NP40-soluble protein abundance (concentration: 2mM), RASSF2 (UniProt P50749) reads 1.04 ± 0.069
NP40-soluble protein abundance (concentration: 2mM), ARHGDIB (UniProt P52566) reads 0.981 ± 0.026
NP40-soluble protein abundance (concentration: 8mM), ZAP70 (UniProt P43403) reads 1.01 ± 0.076
NP40-soluble protein abundance (concentration: 1mM), UniProt P49407-2|P49407 reads 0.9921 ± 0.009
